# Laboratory results reported in paper PMC9198812.
# By UniProt entry, the sequences of proteins in these tests, tags left out. Where a name states a change or a piece, a line headed by the entry shows the natural chain unless it says otherwise.
# UniProt P03692: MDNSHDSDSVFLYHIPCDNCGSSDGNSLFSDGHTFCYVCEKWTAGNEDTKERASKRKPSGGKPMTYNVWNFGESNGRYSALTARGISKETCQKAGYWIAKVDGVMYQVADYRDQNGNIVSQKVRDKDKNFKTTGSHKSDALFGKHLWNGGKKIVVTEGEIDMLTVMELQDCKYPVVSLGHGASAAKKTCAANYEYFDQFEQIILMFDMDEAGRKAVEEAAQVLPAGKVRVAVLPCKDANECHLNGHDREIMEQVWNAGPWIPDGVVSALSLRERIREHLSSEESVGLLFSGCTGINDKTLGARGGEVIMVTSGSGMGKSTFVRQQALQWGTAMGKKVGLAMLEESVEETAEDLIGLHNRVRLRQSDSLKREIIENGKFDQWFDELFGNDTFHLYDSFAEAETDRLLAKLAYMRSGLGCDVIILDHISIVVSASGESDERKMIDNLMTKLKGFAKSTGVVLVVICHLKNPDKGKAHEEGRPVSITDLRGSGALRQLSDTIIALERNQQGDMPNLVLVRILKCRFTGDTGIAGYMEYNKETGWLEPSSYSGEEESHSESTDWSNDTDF
# Results are given in words; binding and its absence hold for the method and conditions named.
# Legend:
# [1] = target: bacteriophage T7 primase-helicase gp4 Y111A (63 kDa form) (bacteriophage T7) (UniProt P03692); assay: condition: only in the absence of ssDNA and [β,γ-CH2] dTTP; 8.7 nM gp4 hexamer; mass photometry; self-association; 8.7 nM gp4 (hexamer concentration) in 40 mM Tris-HCl pH 7.5, 150 mM KCl, 10 mM MgCl2, 25 °C, 15 min, in the absence of ligand; Refeyn OneMP; both purified
# [2] = target: bacteriophage T7 primase-helicase gp4, wild type (63 kDa form) (bacteriophage T7) (UniProt P03692); assay: as above
Substance,binding [1],binding [2]
bacteriophage T7 primase-helicase gp4 Y111A (63 kDa form) (from UniProt P03692 1-566) (enzyme),no binding,
"bacteriophage T7 primase-helicase gp4, wild type (63 kDa form) (from UniProt P03692 1-566) (enzyme)",,no binding
